Measurements reported in PubChem BioAssay AID1259308 (NCATS, 2017)
In all, the deposit lists about 59,000 reagents; shown is a part drawn at random. About 1,510 of all reagents (2.6%) count as active. 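Calls use total luciferase alone and ignore viability, so some active siRNAs may act by altering cell number.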 The numbers tell different reagents against one gene apart. Not all columns of the deposit are shown. Reagent sequences are not shown.

- Test: 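Knock-downs that increase output of a recombinant reporter protein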 (primary screen)
- Cell system: human HEK293 embryonic kidney cells stably expressing firefly luciferase (HEK-CMV-Luc2-Hygro)
- Reagent: single siRNA against human genes, 0.8 pmol siRNA per well
- Timing: 72 h
- Read-out: 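Luciferase light (ONE-Glo) measured on one replicate plate set and viability (CellTiter-Glo) on the other, scaled to a negative control siRNA, with robust z-scores and luciferase per cell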
- Direction: total luciferase, z-score: higher = more reporter protein produced
- Hit rule: 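Active when the median/MAD z-score for overall luciferase is greater than 3; a gene was taken forward for validation with new siRNAs if at least two of its three siRNAs passed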
- Meaning of the calls: active = raised luciferase; inactive = no rise

total luciferase, z-score, by target gene and reagent
PPIL6 (peptidylprolyl isomerase like 6): #1 -1.59 inactive; #2 0.0168 inactive; #3 -0.657 inactive
FABP4 (fatty acid binding protein 4): #1 -0.747 inactive; #2 -1.58 inactive; #3 1.86 inactive
PRPSAP1 (phosphoribosyl pyrophosphate synthetase associated protein 1): #1 0.137 inactive; #2 0.127 inactive; #3 -1.25 inactive
CARMIL1 (capping protein regulator and myosin 1 linker 1): #1 -2.5 inactive; #2 -0.46 inactive; #3 0.397 inactive
GOLT1B (golgi transport 1B): #1 -0.324 inactive; #2 1.34 inactive; #3 -0.262 inactive
DCD (dermcidin): #1 -0.0494 inactive; #2 0.489 inactive; #3 -0.583 inactive
FUBP3 (far upstream element binding protein 3): #1 -0.997 inactive; #2 -0.287 inactive; #3 2.1 inactive
ALG10 (ALG10 alpha-1,2-glucosyltransferase): #1 0.211 inactive; #2 1.41 inactive; #3 -0.446 inactive
MGP (matrix Gla protein): #1 0.963 inactive; #2 -0.405 inactive; #3 0.0327 inactive
RASGRP1 (RAS guanyl releasing protein 1): #1 -1.27 inactive; #2 -0.124 inactive; #3 -0.253 inactive
PKDCC (protein kinase domain containing, cytoplasmic): #1 0.853 inactive; #2 0.637 inactive; #3 -0.07 inactive
CNOT6L (CCR4-NOT transcription complex subunit 6 like): #1 0.387 inactive; #2 -0.598 inactive; #3 -1.07 inactive
AS3MT (arsenite methyltransferase): #1 -0.174 inactive; #2 -1.34 inactive; #3 -2.12 inactive
